# Values from PubChem BioAssay AID504804 (Drosophila RNAi Screening Center, 2011).
# Assay: 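Knock-downs shielding fly cells from apoptosis caused by DNA damage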 (primary screen)
# Cell system: Drosophila Kc cells
# Knock-down reagent: long dsRNA against Drosophila genes, 0.5 µg dsRNA per well
# Time to read-out: 96 h (48 h knock-down, then 48 h drug)
# Challenge: doxorubicin 5 µg/ml for 48 h, added 48 h after dsRNA
# Read-out: 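Viability measured as cellular ATP by luminescence after 48 h knock-down then 48 h doxorubicin at 5 µg/ml; unnormalised plate counts for each replicate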
# Reading the numbers: raw ATP luminescence: higher = more viable cells, protection from doxorubicin
# Hit rule: 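Active when both duplicate wells lie at least 2 SD above the plate mean and protection is confirmed by rescreening and independent dsRNAs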
# The screen tested about 19,000 reagents; shown is a random part of those with a known target gene and a result. Over the whole deposit, 47 (0.25%) were called active. 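Signals are raw, not normalised; exact z-scores behind calls not deposited; actives needed confirmation, so some wells reaching 2 SD are inactive.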 Unmarked entries are inactive. The numbers tell different reagents against one gene apart. Names joined by + are all predicted targets of the reagent.
target gene,dsRNA no.,SD above plate mean,"raw ATP luminescence, replicate 1","raw ATP luminescence, replicate 2"
CG7519,1,,61353,62087
CG18581,1,,61537,52267
Acp95EF,1,,65430,58890
CG32462,1,,22790,39083
Pdss2,1,,20993,18953
CG8329,1,,36513,33180
fws,1,,72840,74553
CG40948 (retired record),1,,2.06e5,2.38e5
CG3198,1,,44200,50710
Nubp1,1,,87273,66900
CG42336,1,,95117,88523
CG42336,2,,1.83e5,1.81e5
CG43901,1,,3.38e5,3.05e5
CG43901,2,,65760,75840
CG30356,1,,1.01e5,89857
CG4004,1,,3.22e5,3.31e5
ouib,1,,52870,59893
eIF4E5,1,,65067,62830
ball,1,,49300,39530
scpr-A + scpr-C + scpr-B,1,,56187,48140
park + Targ3,1,,22333,24233
CR31824,1,,2.26e5,2.05e5
CG3706,1,,57870,48310
CG10949,1,,93287,86957
Rsod,1,,38150,40810
CG6650,1,,25660,23137
CG18853,1,,34487,1.21e5
Gfat1,1,,3.17e5,3.09e5
PolE1,1,,34723,30880
CG9399,1,,65423,61773
CG31008,1,,1.30e5,1.61e5
Snap25,1,,3.94e5,2.83e5
Snap25,2,,2.01e5,2.73e5
CG42703,1,,85973,57533
CG9259,1,,61343,57430
CG31087,1,,75280,61400
Nab2,1,,40117,36383
stol,1,,69433,73967
CG17612,1,,1.22e5,83163
sced,1,,65463,56223
Zip88E,1,,95830,1.21e5
Spn42Dd,1,,41490,1.46e5
Cyp313a2,1,,40797,51533
CG4325,1,,12850,15270
Der-1,1,,1.34e5,93113
PheRS-m,1,,57223,42953
mbc,1,,55410,61230
CG31041,1,,2.13e5,2.12e5
Dgk,1,,39317,45230
Dgk,2,,85493,84967
Dgk,3,,42860,94233
Dgk,4,,49013,1.02e5
sau,1,,1.12e5,1.08e5
Clamp,1,,72490,63183
CG1360,1,,46513,79973
eas,1,,2.55e5,3.01e5
Cyp28c1,1,,3.73e5,3.41e5
Irp-1A,1,,45330,32910
GrlHz,1,,81647,52920
CG9886,1,,1.01e5,74210
bou,1,,38030,48470
PolI,1,,63023,65307
Ilp6,1,,41510,67220
CG32264,1,,33607,1.29e5
CG32264,2,,39087,45147
CG32264,3,,2.22e5,2.74e5
CG3092,1,,60373,55997
CG11251,1,at least 3 SD above plate mean (active),1.33e5,1.42e5
AhcyL2,1,,77330,58570
Dpm1,1,,69670,63190
upSET,1,,12873,11097
dpr2,1,,44060,74717
dpr2,2,,48620,75177
hbt,1,,42207,66557
Sac1,1,,63173,92140
RpS23,1,,44423,57080
CG15403,1,,23697,31000
CG32437,1,,61043,59303
CG31437,1,,2.79e5,2.74e5
Cpr12A,1,,3.55e5,3.67e5
CG31076,1,,52740,50700
dpr9,1,,63613,28653
dpr9,2,,53570,82980
dpr9,3,,73490,95100

Already shown: 4 of the entries above.
target gene,dsRNA no.,SD above plate mean,"raw ATP luminescence, replicate 1","raw ATP luminescence, replicate 2"
RpS23,1,,44423,57080
CG15403,1,,23697,31000
CG32437,1,,61043,59303
CG31437,1,,2.79e5,2.74e5
